This note sets out measurements from the supplement of paper PMC10849652.

Sequences of proteins named here, by UniProt entry; tags and fusion partners are left off. A change or cut given only in a name is not applied to a line headed by its entry.
UniProt O94901, whole entry, looked up: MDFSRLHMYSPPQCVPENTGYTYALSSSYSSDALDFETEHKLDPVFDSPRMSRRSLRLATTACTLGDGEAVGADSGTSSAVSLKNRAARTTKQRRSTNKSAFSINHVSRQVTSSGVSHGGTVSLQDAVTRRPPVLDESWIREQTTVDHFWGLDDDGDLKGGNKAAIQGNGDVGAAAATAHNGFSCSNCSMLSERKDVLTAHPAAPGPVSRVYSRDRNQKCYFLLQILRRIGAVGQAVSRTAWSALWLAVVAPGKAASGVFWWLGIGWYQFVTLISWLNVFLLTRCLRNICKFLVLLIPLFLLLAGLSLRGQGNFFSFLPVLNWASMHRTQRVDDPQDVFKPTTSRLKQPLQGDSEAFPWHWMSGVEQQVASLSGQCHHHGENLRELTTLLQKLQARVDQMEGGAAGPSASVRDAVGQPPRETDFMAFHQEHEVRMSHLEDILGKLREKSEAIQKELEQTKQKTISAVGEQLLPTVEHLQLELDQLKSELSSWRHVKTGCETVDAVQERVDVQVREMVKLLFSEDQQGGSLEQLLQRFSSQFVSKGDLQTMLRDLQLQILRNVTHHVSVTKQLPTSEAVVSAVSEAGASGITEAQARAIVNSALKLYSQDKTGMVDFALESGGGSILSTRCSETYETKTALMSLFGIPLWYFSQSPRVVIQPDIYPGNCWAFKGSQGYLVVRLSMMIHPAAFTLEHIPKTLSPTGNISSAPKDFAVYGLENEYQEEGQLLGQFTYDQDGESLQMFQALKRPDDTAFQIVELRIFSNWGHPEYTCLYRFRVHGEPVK
UniProt Q9Y2K9: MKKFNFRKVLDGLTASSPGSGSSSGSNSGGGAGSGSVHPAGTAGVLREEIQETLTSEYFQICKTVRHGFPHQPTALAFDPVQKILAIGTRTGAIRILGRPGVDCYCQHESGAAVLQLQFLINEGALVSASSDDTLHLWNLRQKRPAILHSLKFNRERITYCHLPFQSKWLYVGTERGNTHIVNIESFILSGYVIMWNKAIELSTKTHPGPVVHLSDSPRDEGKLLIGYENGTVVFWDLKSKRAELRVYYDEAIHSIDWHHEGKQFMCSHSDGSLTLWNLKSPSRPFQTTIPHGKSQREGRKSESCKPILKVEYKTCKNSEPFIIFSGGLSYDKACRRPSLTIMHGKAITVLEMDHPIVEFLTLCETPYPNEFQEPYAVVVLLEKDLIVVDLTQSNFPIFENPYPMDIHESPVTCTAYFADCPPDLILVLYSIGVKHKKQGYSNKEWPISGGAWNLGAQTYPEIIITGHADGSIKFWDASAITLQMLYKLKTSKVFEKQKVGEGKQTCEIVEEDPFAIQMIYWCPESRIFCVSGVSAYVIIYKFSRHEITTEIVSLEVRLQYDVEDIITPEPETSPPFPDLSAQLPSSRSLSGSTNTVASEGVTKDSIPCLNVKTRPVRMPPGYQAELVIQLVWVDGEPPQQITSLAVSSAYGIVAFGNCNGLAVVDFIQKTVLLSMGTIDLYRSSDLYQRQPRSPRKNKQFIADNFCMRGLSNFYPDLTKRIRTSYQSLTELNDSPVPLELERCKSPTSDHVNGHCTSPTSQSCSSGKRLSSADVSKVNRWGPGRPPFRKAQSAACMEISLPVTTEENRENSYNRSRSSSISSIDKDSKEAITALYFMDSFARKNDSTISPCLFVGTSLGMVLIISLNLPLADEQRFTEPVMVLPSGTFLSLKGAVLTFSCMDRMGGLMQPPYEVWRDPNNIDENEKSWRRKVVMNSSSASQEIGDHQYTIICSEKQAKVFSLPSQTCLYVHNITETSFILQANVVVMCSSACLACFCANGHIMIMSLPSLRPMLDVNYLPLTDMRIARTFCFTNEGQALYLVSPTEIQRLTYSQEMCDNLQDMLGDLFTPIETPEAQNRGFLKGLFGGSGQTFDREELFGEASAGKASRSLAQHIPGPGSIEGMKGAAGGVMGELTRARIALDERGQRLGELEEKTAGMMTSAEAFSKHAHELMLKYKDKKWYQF
UniProt Q16514: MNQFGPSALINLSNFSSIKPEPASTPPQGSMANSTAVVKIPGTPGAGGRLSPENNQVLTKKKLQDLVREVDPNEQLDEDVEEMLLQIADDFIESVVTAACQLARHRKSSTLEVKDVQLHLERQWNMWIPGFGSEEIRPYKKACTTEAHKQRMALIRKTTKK
UniProt Q15542, whole entry, looked up: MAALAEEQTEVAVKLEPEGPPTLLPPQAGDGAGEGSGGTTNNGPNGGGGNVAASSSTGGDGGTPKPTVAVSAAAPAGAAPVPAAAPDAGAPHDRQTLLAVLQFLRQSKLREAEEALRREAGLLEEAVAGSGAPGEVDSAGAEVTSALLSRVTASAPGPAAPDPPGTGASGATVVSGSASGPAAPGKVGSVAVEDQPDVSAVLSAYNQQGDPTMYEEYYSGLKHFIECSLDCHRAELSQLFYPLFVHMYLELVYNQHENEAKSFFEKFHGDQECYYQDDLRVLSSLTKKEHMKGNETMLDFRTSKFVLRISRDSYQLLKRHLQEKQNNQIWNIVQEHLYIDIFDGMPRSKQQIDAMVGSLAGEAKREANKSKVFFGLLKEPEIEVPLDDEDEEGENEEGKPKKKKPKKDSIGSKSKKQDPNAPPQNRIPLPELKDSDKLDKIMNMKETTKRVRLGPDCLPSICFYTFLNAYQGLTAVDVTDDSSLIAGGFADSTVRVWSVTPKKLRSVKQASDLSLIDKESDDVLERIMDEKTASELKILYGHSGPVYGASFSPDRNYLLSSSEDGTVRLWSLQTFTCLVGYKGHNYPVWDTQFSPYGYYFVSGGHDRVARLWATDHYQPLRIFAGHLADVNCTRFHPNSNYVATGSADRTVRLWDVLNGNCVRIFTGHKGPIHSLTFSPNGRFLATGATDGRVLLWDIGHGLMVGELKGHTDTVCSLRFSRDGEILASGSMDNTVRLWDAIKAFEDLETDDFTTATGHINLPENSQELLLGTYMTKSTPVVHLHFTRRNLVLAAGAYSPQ
UniProt P49888: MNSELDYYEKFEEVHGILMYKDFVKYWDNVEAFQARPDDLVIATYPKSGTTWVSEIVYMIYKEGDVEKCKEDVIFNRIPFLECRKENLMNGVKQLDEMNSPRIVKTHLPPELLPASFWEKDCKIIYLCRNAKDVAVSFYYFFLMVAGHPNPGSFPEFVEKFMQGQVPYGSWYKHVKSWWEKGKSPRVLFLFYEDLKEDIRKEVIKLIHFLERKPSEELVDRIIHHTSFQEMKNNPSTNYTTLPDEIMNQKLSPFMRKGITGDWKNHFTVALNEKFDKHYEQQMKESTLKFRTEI
UniProt Q9ULQ0: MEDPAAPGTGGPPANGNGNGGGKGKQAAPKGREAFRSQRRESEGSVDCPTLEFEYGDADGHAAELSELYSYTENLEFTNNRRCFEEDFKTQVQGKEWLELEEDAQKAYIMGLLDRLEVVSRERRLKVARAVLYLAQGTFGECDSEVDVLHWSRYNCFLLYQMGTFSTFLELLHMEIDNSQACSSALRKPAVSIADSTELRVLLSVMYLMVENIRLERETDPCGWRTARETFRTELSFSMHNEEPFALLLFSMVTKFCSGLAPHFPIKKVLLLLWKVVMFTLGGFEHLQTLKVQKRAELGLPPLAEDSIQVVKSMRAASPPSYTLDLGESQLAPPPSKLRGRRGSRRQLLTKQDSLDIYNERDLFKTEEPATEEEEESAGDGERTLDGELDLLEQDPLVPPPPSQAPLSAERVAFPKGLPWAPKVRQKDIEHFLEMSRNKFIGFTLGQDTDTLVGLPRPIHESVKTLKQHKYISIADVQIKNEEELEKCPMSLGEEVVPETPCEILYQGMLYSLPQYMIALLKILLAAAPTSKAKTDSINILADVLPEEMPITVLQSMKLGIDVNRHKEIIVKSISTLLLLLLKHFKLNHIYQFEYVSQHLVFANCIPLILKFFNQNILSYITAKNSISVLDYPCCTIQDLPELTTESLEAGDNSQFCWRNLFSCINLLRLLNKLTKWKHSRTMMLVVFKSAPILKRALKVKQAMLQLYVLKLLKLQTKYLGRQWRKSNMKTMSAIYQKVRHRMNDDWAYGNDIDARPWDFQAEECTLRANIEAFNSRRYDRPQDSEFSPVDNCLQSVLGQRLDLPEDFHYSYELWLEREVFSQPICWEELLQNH
UniProt Q96C24: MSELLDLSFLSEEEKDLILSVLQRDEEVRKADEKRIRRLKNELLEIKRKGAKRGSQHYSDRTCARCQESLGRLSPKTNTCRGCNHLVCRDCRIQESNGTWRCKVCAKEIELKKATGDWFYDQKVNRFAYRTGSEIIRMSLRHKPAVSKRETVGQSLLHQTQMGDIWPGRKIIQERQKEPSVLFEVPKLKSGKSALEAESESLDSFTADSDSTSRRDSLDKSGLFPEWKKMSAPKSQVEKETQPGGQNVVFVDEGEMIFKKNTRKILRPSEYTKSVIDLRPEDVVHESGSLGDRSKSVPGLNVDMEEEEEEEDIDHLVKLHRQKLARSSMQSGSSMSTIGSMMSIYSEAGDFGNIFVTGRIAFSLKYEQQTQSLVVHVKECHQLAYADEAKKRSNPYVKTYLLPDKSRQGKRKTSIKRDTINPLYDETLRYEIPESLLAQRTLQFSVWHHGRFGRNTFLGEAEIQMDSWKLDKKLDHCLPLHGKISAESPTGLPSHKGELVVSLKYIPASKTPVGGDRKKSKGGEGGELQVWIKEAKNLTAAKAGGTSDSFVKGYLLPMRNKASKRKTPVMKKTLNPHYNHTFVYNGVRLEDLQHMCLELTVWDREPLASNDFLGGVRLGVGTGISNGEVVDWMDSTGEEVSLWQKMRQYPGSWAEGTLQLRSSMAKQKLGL
UniProt Q15544, whole entry, looked up: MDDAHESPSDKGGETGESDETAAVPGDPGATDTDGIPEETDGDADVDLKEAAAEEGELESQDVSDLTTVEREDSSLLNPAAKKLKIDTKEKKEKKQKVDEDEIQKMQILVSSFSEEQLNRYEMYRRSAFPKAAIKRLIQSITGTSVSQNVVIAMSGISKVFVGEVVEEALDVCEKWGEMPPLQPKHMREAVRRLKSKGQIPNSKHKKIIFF
UniProt Q9UMX1: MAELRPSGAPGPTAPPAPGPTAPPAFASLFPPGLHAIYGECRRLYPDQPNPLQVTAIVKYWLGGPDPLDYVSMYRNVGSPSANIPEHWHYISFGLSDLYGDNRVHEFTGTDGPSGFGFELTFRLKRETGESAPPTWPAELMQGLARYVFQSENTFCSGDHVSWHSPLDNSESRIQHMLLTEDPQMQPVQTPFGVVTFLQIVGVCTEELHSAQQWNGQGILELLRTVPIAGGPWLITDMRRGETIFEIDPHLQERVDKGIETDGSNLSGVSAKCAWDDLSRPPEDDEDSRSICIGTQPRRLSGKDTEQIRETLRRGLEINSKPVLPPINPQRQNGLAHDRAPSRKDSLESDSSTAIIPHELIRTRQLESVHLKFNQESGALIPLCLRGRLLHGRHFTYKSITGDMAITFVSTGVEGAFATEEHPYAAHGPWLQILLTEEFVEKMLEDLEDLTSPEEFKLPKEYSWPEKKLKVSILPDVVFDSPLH
UniProt Q9Y6J9: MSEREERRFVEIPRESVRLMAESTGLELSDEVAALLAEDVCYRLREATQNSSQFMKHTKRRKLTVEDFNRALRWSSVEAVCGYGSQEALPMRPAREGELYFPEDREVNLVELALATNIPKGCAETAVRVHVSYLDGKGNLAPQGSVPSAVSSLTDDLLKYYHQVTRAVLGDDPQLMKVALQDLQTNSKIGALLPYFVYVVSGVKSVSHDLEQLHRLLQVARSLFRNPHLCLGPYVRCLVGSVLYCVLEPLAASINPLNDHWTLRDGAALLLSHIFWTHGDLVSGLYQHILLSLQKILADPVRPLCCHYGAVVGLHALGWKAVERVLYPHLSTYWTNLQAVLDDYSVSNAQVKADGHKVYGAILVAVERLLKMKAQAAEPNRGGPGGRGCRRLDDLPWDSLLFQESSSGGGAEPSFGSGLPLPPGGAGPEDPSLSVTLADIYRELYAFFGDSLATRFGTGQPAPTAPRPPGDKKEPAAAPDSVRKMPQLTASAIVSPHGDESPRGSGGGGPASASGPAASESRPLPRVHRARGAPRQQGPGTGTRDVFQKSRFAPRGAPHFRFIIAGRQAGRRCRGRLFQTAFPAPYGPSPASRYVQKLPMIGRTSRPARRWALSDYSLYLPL
UniProt Q8TDR2: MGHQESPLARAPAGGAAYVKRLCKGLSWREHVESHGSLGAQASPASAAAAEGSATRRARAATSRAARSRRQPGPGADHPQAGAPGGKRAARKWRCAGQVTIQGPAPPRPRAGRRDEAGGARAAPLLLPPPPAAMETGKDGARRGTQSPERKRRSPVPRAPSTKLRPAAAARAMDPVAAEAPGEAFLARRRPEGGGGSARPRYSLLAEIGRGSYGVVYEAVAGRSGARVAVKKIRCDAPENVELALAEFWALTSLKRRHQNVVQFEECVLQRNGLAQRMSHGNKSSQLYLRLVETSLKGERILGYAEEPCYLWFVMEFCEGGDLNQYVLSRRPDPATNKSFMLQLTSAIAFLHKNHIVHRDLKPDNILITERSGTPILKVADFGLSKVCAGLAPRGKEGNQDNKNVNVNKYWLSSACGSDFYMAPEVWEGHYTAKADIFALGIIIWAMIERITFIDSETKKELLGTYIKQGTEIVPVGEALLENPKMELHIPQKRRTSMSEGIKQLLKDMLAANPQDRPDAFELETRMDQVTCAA

The other results are listed elsewhere or left out.

Compound in the first test: C1COCCN1CCN2C3=CC=CC=C3N=C2NC(=O)C4=CC(=CC=C4)[N+](=O)[O-] [IRAK-1-4 Inhibitor I]
As to the kind of experiment: log2 fold change, soluble protein after heating vs DMSO (PISA); higher = thermal stabilisation; K562 cells, 10 uM, 30 min; active = over 0.2 and 3.5 SD of the protein, either way, in both replicates (recomputed). An outline of the steps: (§1)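 K562 cells at 2×10^6 cells/mL were treated with 10 μM compound for 30 min. Aliquots were heated for 3 min across 48°C-58°C, pooled, and extracted in PBS with 0.5% NP-40 at 4°C; soluble protein was the supernatant after 21,000xg for 90 min. Soluble protein was quantified by TMTpro 16plex LC-MS/MS with channel sums equalised, and reported as log2 fold change in thermal stability against DMSO controls, with values from duplicates.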
As to TAOK2 (UniProt Q9UL54), the log2 fold change was inactive: -0.132.

Consider STON2 isoform 3 (UniProt Q8WXE9), for which the log2 fold change was inactive: 0.006.

For SUN1 isoform 9 (UniProt O94901), the log2 fold change was inactive: -0.028.

In the case of SUCO (UniProt Q9UBS9), the log2 fold change was inactive: -0.095.

As for STXBP5L (UniProt Q9Y2K9), the log2 fold change is inactive: 0.09.

Take STXBP4 (UniProt Q6ZWJ1): the log2 fold change is inactive: 0.089.

Consider TAF12 (UniProt Q16514), for which the log2 fold change was inactive: 0.066.

TAGLN (UniProt Q01995): the log2 fold change was inactive: 0.172.

In the case of SUMF1 isoform 3 (UniProt Q8NBK3), the log2 fold change was inactive: 0.013.

Turning to SUZ12 (UniProt Q15022), the log2 fold change was inactive: 0.001.

As to TAF5 (UniProt Q15542), the log2 fold change is inactive: -0.231.

Compound in a further test: C=CC(=O)N1CCC[C@@H](n2nc(-c3ccc(Oc4ccccc4)cc3)c3c(N)ncnc32)C1 [ibrutinib]
The test is described as above. The essentials:
as §1
On to SULT1E1 (UniProt P49888), for which the log2 fold change was inactive: 0.147.

Take STS (UniProt P08842): the log2 fold change is inactive: 0.079.

Consider STRIP2 (UniProt Q9ULQ0), for which the log2 fold change was inactive: -0.131.

Turning to TAF5L (UniProt O75529), the log2 fold change was inactive: -0.017.

As for SYTL4 (UniProt Q96C24), the log2 fold change is inactive: 0.002.

TACC2 (UniProt O95359): the log2 fold change is inactive: -0.058.

STK36 (UniProt Q9NRP7): the log2 fold change is inactive: 0.097.

As to TAF11 (UniProt Q15544), the log2 fold change is inactive: 0.037.

Regarding TAF12 (UniProt Q16514), the log2 fold change was inactive: -0.04.

As for TAGLN (UniProt Q01995), the log2 fold change is inactive: 0.09.

SVBP (UniProt Q8N300): the log2 fold change was inactive: 0.019.

In the case of SUFU (UniProt Q9UMX1), the log2 fold change was inactive: 0.182.

Compound in another test: CC(=O)c1cnc2ccc(-c3cc(Cl)c(O)c(Cl)c3)nc2c1N[C@H]1CC[C@H](CN(C)C)CC1
The test is described as above. The essentials: as §1
As for STS (UniProt P08842), the log2 fold change is inactive: -0.141.

With STRIP2 (UniProt Q9ULQ0), the log2 fold change was inactive: 0.072.

Turning to TAF6L (UniProt Q9Y6J9), the log2 fold change is inactive: 0.054.

On to TBC1D12 (UniProt O60347), for which the log2 fold change was inactive: -0.108.

With SUN1 isoform 9 (UniProt O94901), the log2 fold change was inactive: -0.114.

As for SUCO (UniProt Q9UBS9), the log2 fold change is inactive: -0.199.

Regarding SYTL4 (UniProt Q96C24), the log2 fold change was inactive: 0.009.

For TACC2 (UniProt O95359), the log2 fold change was inactive: 0.054.

As to STK36 (UniProt Q9NRP7), the log2 fold change is inactive: -0.095.

Take STK40 isoform 4 (UniProt Q8N2I9): the log2 fold change was inactive: -0.414.

Take TAF11 (UniProt Q15544): the log2 fold change was inactive: 0.052.

SUMF1 isoform 3 (UniProt Q8NBK3): the log2 fold change is inactive: -0.143.

For SUZ12 (UniProt Q15022), the log2 fold change was inactive: -0.021.

Regarding SVBP (UniProt Q8N300), the log2 fold change was inactive: 0.011.

As to STK35 (UniProt Q8TDR2), the log2 fold change is inactive: -0.085.

SUFU (UniProt Q9UMX1): the log2 fold change is inactive: 0.03.
